{
  "source": "paper PMC4324493",
  "about": "(BioMed Research International, 2015)",
  "assay": "general procedure: Fmoc solid-phase peptide synthesis; rink amide-AM resin; HBTU/DIPEA; DIC/Oxyma pure for DOTA conjugation",
  "details": "whole synthesis, scale 0.1 mmol",
  "data": [
    {"substance": "PLPVLTI-GG", "values": [
      {"measurement": "final purity (method not given)", "value": ">99", "unit": "%"}
    ]}
  ]
}
